Reference: paper PMC9061724

Sequences of proteins named here, by UniProt entry; tags and fusion partners are left off.
UniProt Q14160: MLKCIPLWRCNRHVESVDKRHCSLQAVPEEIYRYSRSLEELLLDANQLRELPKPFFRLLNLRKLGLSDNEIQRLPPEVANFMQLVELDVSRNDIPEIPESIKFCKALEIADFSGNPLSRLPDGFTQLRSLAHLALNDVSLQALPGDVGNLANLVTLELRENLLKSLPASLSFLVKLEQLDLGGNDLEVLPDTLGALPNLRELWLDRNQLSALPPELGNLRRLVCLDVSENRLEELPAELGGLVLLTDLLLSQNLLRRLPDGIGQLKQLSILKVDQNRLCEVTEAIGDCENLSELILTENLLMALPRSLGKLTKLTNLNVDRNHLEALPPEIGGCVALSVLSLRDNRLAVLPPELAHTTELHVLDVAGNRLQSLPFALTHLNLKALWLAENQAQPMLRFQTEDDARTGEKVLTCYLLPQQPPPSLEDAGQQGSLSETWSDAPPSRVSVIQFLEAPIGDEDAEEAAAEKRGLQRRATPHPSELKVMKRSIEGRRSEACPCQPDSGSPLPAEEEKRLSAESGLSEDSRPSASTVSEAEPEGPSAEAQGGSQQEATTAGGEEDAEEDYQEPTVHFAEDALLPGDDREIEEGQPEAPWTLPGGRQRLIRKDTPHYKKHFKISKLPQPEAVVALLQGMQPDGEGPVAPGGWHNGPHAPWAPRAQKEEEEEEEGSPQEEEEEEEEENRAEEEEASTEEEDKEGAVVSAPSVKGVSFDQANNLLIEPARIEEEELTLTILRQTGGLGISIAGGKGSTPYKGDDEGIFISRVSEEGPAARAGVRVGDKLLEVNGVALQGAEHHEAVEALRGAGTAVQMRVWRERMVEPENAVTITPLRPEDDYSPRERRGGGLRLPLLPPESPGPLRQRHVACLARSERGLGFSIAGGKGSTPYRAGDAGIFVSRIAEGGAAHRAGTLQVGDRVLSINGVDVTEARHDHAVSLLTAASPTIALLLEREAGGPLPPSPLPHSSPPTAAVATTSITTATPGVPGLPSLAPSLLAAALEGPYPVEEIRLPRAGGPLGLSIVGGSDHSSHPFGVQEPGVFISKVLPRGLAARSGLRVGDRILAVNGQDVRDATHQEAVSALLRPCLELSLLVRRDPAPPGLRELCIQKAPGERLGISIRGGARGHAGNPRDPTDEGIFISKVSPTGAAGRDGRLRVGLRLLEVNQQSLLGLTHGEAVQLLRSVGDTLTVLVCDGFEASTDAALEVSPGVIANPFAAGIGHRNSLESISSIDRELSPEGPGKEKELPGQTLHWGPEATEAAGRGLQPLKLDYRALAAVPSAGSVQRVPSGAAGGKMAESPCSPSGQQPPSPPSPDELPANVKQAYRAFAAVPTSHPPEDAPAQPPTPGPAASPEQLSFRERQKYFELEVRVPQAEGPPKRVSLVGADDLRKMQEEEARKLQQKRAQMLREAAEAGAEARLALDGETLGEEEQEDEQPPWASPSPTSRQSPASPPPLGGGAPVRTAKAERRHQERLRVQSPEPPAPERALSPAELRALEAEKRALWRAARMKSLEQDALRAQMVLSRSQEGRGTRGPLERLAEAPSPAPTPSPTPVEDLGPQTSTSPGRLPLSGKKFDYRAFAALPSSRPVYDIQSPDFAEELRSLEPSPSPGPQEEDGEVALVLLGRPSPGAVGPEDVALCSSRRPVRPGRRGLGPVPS

Target: BirA*-SCRIB (UniProt Q14160)
Assay: proximity labelling; BioID: BirA*-SCRIB in MCF-7 cells, 50 uM biotin for 24 h, RIPA lysate, streptavidin beads, mass spectrometry

SLC3A2 (from UniProt P08195 1-529)
binding: binds

No constants are given. Whether binding was seen depends on the method and setting. Binding seen in cells or lysates may run through a third protein. A yes stands for co-enrichment or nearness to the bait. Other partners may have been found.
